Test results from publication PMC6801678.

Molecular target: FLAG3-Tric∆C, tricellulin lacking the complete cytosolic C-terminus (human)
Assay: co-IP; HEK-293 cells co-transfected with FLAG3-tricellulin constructs and GFP-LSR, lysed 48 h after transfection in modified RIPA buffer; IP with anti-FLAG M2 and Protein A Sepharose at 4 °C; Western blot with anti-LSR and anti-FLAG

B1: GFP-tagged lipolysis-stimulated lipoprotein receptor (LSR)/angulin-1 (protein, UniProt Q99KG5 36-594)
chain: AIQVTVPDPYHVVILFQPVTLHCTYQMSNTLTAPIVIWKYKSFCRDRVADAFSPASVDNQLNAQLAAGNPGYNPYVECQDSVRTVRVVATKQGNAVTLGDYYQGRRITITGNADLTFEQTAWGDSGVYYCSVVSAQDLDGNNEAYAELIVLGRTSEAPELLPGFRAGPLEDWLFVVVVCLASLLFFLLLGICWCQCCPHTCCCYVRCPCCPDKCCCPEALYAAGKAATSGVPSIYAPSIYTHLSPAKTPPPPPAMIPMRPPYGYPGDFDRTSSVGGHSSQVPLLREVDGSVSSEVRSGYRIQANQQDDSMRVLYYMEKELANFDPSRPGPPNGRVERAMSEVTSLHEDDWRSRPSRAPALTPIRDEEWNRHSPRSPRTWEQEPLQEQPRGGWGSGRPRARSVDALDDINRPGSTESGRSSPPSSGRRGRAYAPPRSRSRDDLYDPDDPRDLPHSRDPHYYDDLRSRDPRADPRSRQRSHDPRDAGFRSRDPQYDGRLLEEALKKKGAGERRRVYREEEEEEEEGHYPPAPPPYSETDSQASRERRMKKNLALSRESLVV
- binding: binds weakly

Results are given in words; binding and its absence hold for the method and conditions named. Binding seen in cells or lysates may run through a third protein. Binding can be weak; no strength is given. Tags and fused reporters may be left off the sequences shown.
